Measurements: patent publication US20260191807A1, “COMPOSITIONS AND METHODS FOR TREATMENT OF PRADER-WILLI SYNDROME” (ERX Pharmaceuticals Inc., priority 2022, published 2026)
At least one read-out could not be matched to a standard name with certainty.

Assay: Plasma pharmacokinetics of celastrol after intranasal or oral dosing
Type: in vivo, Sprague Dawley rats
Conditions: following oral administration, 2 mg/kg, rats

CC1=C(O)C(=O)C=C2C1=CC=C1[C@@]2(C)CC[C@@]2(C)[C@@H]3C[C@](C)(C(=O)O)CC[C@]3(C)CC[C@]12C [Celastrol]
time at which maximum plasma concentrations (Cmax) were achieved: ~4 h
